Results from PubChem BioAssay AID1487 (National Center for Advancing Translational Sciences (NCATS), 2009).
The other results are listed elsewhere or left out. Further columns of the screen follow, without active or inactive calls. Most of these compounds were active or inconclusive in the main read-out, so they are no random draw. The note in brackets gives the kind of curve behind each potency; many fits are weak.

Test: qHTS Assay for Modulators of Lamin A Splicing
Conditions: HeLa LMNA splicing GFP/RFP minigene ratio, 48 h
How it was run: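 S3 HeLa cells stably expressing lamin A-EGFP splicing minigene plus DsRed2, 600 cells/well, 48 h compound exposure at 37C. Laser-scanning cytometry; analysed as GFP (500-530 nm)/RFP (575-640 nm) total intensity ratio; 0.5% DMSO vehicle.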

[1] = measured here: GFP splicing reporter channel
[2] = measured here: RFP viability control channel

Row | SMILES | AC50 [1] | AC50 [2]
1 | CCCn1c(NC(=O)c2cccc(S(=O)(=O)N3CCCC3)c2)nc2ccccc21 | 35.5 µM [falling, single point] | 35.5 µM [falling, single point]
2 | Cc1ccc(-n2ncc3c(NCc4ccccn4)ncnc32)c(C)c1 | 1.41 µM [rising, partial curve] | 4.47 µM [rising, partial curve, poor fit]
3 | O=C(Nc1ccc(Cl)cn1)C1CCCN1S(=O)(=O)c1ccccc1 (stereo not drawn) | – | 28.2 µM [rising, single point]
4 | COC1CC(O[C@H]2/C(C)=C/CC3CC(C[C@]4(CCC(C)C(C5CCCCC5)O4)O3)OC(=O)[C@H]3C=C(C)/C(=N/O)C4OC/C(=C\C=C\[C@@H]2C)[C@@]43O)OC(C)C1O (stereo partly drawn) | 0.00355 µM [falling, full curve, poor fit] | 31.6 µM [rising, single point]
5 | O=C(NCc1cccnc1)C1CCCN(S(=O)(=O)c2ccc(Br)cc2)C1 (stereo not drawn) | 35.5 µM [rising, single point] | 35.5 µM [rising, single point]
6 | CCCCC(CC)COC(=O)c1ccc(N(C)C)cc1 (stereo not drawn) | 0.00398 µM [falling, full curve, poor fit] | 0.447 µM [falling, single point]
7 | COC(=O)c1ccc(Oc2cc(C)nc(SC)n2)cc1 | – | 4.47 µM [rising, single point]
8 | COC(=O)C1=C(C(=O)OC)[C@@H]2N(C)c3ccccc3[C@@]23C[C@@H](C(=O)OC)N(C(=O)C2CCC2)C3=N1 | 1.26 µM [rising, single point] | –
9 | CCCCCCCOC(=O)C1=C(C)Nc2ncnn2C1c1cccs1 (stereo not drawn) | – | 15.8 µM [rising, single point]
10 | O=c1[nH]nc(Cc2ccc(Cl)cc2)c2ccccc12 | – | 31.6 µM [rising, single point]
11 | Cc1ccc(Cn2cnc3nc4c(cc3c2=O)CC(C)CC4)cc1 (stereo not drawn) | – | 12.6 µM [rising, single point]
12 | O=C(C1CCC1)N1CCc2cc(S(=O)(=O)Nc3ccc4c(c3)OCO4)ccc21 | 2.51 µM [rising, full curve] | 12.6 µM [rising, partial curve]
13 | CCOC(=O)N/N=C(/C)c1cccc(-n2cnnn2)c1 | – | 0.2 µM [falling, full curve]
14 | Cc1cccc(C(=O)NNc2ncnc3c2cnn3-c2ccc(C)cc2C)c1 | – | 15.8 µM [rising, partial curve]
15 | Cc1cccc(NC(=O)C2CCCN2/C=C/C(=O)C(F)(F)F)c1C (stereo not drawn) | – | 8.91 µM [rising, partial curve]
16 | O=C(NCc1ccc(F)cc1)C1(c2cccs2)CCOCC1 | 0.0447 µM [falling, full curve, poor fit] | –
17 | CCn1c(/C=C2\C(=O)Nc3ccccc32)nc2ccccc2c1=O | – | 14.1 µM [rising, single point]
18 | COc1ccc2nc(SCc3nc(N)nc(Nc4ccccc4)n3)[nH]c2c1 | – | 14.1 µM [rising, single point]
19 | NC(=O)c1cc2ccccc2o/c1=N/NC(=O)c1cccs1 | 0.0355 µM [rising, full curve, poor fit] | 0.562 µM [rising, full curve, poor fit]
20 | CC(C)Cn1c(N)c(C(=O)COC(=O)c2cc(C3CC3)nc3ccccc23)c(=O)n(C)c1=O | 11.2 µM [rising, partial curve, poor fit] | 15.8 µM [rising, partial curve]
21 | Cc1ccc(NC(=O)CCn2cnc3ccccc3c2=O)cc1 | 3.16 µM [falling, partial curve] | 5.01 µM [falling, partial curve, poor fit]
22 | CC(=O)Nc1ccc(N2C(=O)CSC2c2cccc([N+](=O)[O-])c2)cc1 (stereo not drawn) | – | 0.2 µM [rising, full curve, poor fit]
23 | C[C@@]12C=CC(=O)C=C1CC[C@H]1[C@H]3CC[C@](O)(C(=O)CO)[C@]3(C)CC(=O)[C@@H]12 | 1.12 µM [falling, single point] | 3.16 µM [falling, single point]
24 | COc1cc(OC)c2c(=O)c(O)c(-c3ccc(OC)c(OC)c3)oc2c1 | 11.2 µM [falling, partial curve] | –
25 | COc1ccc(C2(C(=O)Nc3ccccc3)CCOCC2)cc1 | 0.00316 µM [falling, full curve, poor fit] | –
26 | Cc1cc(Cl)ccc1NC(=O)NC1CCN(S(=O)(=O)c2ccc(F)cc2)CC1 | – | 12.6 µM [rising, single point]
27 | CC1(OC(=O)C2CCCC2)C(=O)C=C2C=C(c3ccsc3)N(CCN3CCOCC3)C=C2C1=O (stereo not drawn) | – | 6.31 µM [rising, single point]
28 | O=C(N/N=C/c1ccccc1O)/C(=C/c1ccccc1)CCO | – | 14.1 µM [rising, partial curve, poor fit]

Some of the entries so far, with each value named.
COC(=O)C1=C(C(=O)OC)[C@@H]2N(C)c3ccccc3[C@@]23C[C@@H](C(=O)OC)N(C(=O)C2CCC2)C3=N1
  AC50 [1]: 1.26 µM [rising, single point]
CCCCCCCOC(=O)C1=C(C)Nc2ncnn2C1c1cccs1 (stereo not drawn)
  AC50 [2]: 15.8 µM [rising, single point]

Next entries follow.

Row | SMILES | AC50 [1] | AC50 [2]
29 | COc1ccc(C(=O)Cc2ccc3c(c2)OCO3)c(O)c1 | – | 0.0398 µM [falling, full curve]
30 | Cc1ccc(Nc2nc(CSc3nnc(-c4cccnc4)n3-c3ccccc3C)cs2)cc1 | – | 12.6 µM [rising, single point]
31 | COc1cccc(OC)c1OCCCOc1ccc([N+](=O)[O-])cc1Cl | 35.5 µM [rising, single point] | 35.5 µM [rising, single point]
32 | COc1cccc2c(=O)c3ccccc3oc12 | 2.51 µM [falling, partial curve] | 0.316 µM [falling, full curve, poor fit]
33 | O=C(CS(=O)(=O)c1cn(Cc2ccc(F)cc2)c2ccccc12)N1CCCCC1 | – | 35.5 µM [rising, single point]
34 | O=C(CSCc1ccccc1)N/N=C/c1cc2c(cc1Br)OCO2 | – | 11.2 µM [rising, partial curve]
35 | Cc1ccccc1NC(=O)c1oc2c(c1C)-c1nn(Cc3cccc(Cl)c3)cc1CC2 | 3.16 µM [rising, full curve] | –
36 | O=C(Nc1nc2c(s1)CCCC2)c1cccc(S(=O)(=O)N2CCCc3ccccc32)c1 | 11.2 µM [rising, partial curve] | 12.6 µM [rising, partial curve]
37 | C/C=C1\C2C=C(C)CC1(N)c1ccc(=O)[nH]c1C2 (stereo not drawn) | 5.62 µM [falling, full curve, poor fit] | –
38 | Cc1cc(SCc2cc(=O)n3ccsc3n2)nc2ccccc12 | – | 35.5 µM [rising, single point]
39 | CCN(Cc1ccccc1)c1ccc(/C=N/NC(=S)NC(C)C)cc1 | 8.91 µM [rising, partial curve, poor fit] | 11.2 µM [rising, partial curve]
40 | Cc1[nH]c2ccccc2c1C1=NNC(=Nc2ccc(F)cc2)SC1 | 35.5 µM [falling, single point] | 35.5 µM [falling, single point]
41 | Cc1c(Br)c(=O)oc2c(Br)c(O)ccc12 | 1.58 µM [rising, full curve, poor fit] | –
42 | O=C1N2CCSC2=NC1(Nc1ccccn1)C(F)(F)F (stereo not drawn) | – | 2.82 µM [falling, full curve]
43 | CCCN1C(=O)/C(=N\OCC(=O)Nc2ccc(C(C)C)cc2)c2ccccc21 | 35.5 µM [rising, single point] | 35.5 µM [rising, single point]
44 | Cc1cc(OCCSc2nnc(-c3cccs3)n2C)ccc1Cl | – | 20 µM [rising, single point]
45 | CC(C)CNC(=S)Nc1ccc(Oc2ccccc2)cc1 | – | 35.5 µM [rising, single point]
46 | COc1cc(C(C(=O)NC2CCCCC2)N(Cc2cccs2)C(=O)Cc2c[nH]c3ccccc23)cc(OC)c1OC (stereo not drawn) | – | 11.2 µM [rising, partial curve, poor fit]
47 | Cc1ccc2cc(C3CC(c4ccco4)=NN3S(=O)(=O)c3ccccc3)c(Cl)nc2c1 (stereo not drawn) | – | 15.8 µM [rising, partial curve, poor fit]
48 | CC(C)(C)C(=O)/C=C/c1ccc(Oc2ccccc2)cc1 | – | 0.00447 µM [falling, full curve, poor fit]
49 | O=C(/C=C/c1ccccc1)N1c2ccccc2Sc2ccc(C(F)(F)F)cc21 | 35.5 µM [rising, single point] | –
50 | CCOC(=O)c1ccc(CN(Cc2ccc(Br)cc2)S(=O)(=O)c2cccc(Cl)c2C)cc1 | 0.355 µM [falling, partial curve, poor fit] | –
51 | CCOC(=O)N1CCN(C(=O)CN(c2ccc(Oc3ccccc3)cc2)S(C)(=O)=O)CC1 | – | 35.5 µM [rising, single point]
52 | CCOC(=O)Nc1nc(-c2ccccc2)c(C(=O)c2ccccc2)s1 | 15.8 µM [falling, single point] | 12.6 µM [falling, single point]
53 | C/C(=N\N=C(/N)SC1CC(=O)N(c2ccc(Br)cc2)C1=O)c1cccs1 (stereo not drawn) | – | 11.2 µM [falling, single point]
54 | O=c1cc(-c2ccc(F)cc2)nc(SCc2nc(-c3ccc(Cl)cc3)no2)[nH]1 | 0.316 µM [rising, partial curve, poor fit] | 0.355 µM [rising, partial curve, poor fit]
55 | COc1ccc(NC(=O)Nc2ccc(C)cc2OC(F)F)cc1OC | – | 14.1 µM [rising, single point]

Structures listed so far with a furan ring, fused or not:
Row | SMILES | AC50 [1] | AC50 [2]
35 | Cc1ccccc1NC(=O)c1oc2c(c1C)-c1nn(Cc3cccc(Cl)c3)cc1CC2 | 3.16 µM [rising, full curve] | –
47 | Cc1ccc2cc(C3CC(c4ccco4)=NN3S(=O)(=O)c3ccccc3)c(Cl)nc2c1 (stereo not drawn) | – | 15.8 µM [rising, partial curve, poor fit]
